Results published in the supplement of paper PMC10849652.
The list shows a part of the results.

By UniProt entry, the sequences of proteins in these tests, tags left out. Where a name states a change or a piece, a line headed by the entry shows the natural chain unless it says otherwise.
UniProt Q13011: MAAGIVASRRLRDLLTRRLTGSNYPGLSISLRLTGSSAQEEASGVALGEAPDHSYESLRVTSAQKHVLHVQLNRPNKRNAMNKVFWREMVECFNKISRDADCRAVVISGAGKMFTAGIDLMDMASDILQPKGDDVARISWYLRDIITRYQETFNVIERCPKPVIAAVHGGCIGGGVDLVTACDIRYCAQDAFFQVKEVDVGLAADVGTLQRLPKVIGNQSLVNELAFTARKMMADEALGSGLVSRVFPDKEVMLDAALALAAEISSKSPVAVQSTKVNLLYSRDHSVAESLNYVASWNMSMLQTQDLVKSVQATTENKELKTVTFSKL
UniProt O75521: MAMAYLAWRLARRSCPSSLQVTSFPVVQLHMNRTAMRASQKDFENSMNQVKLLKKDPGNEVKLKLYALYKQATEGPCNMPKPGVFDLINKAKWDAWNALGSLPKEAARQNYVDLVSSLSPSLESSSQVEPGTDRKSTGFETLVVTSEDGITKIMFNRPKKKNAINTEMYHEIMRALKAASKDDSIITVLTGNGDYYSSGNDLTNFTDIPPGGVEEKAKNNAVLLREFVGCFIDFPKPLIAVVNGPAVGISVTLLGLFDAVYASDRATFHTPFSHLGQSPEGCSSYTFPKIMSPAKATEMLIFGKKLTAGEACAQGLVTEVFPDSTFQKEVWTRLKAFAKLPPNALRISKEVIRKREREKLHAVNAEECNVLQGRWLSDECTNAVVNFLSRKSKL
UniProt O75071: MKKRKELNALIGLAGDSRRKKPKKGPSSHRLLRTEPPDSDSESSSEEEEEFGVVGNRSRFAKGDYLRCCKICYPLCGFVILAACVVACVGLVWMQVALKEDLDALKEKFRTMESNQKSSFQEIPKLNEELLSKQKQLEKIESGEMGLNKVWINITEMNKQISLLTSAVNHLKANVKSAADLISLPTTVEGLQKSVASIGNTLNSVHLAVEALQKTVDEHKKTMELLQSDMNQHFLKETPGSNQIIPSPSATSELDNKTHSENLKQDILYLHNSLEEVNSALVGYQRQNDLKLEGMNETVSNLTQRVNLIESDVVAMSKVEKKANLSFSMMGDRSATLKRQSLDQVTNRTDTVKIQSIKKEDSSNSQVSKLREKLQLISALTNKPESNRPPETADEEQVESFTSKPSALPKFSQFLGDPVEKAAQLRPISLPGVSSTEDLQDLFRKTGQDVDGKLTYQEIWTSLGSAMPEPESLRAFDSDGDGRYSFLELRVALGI
UniProt Q8NDI1: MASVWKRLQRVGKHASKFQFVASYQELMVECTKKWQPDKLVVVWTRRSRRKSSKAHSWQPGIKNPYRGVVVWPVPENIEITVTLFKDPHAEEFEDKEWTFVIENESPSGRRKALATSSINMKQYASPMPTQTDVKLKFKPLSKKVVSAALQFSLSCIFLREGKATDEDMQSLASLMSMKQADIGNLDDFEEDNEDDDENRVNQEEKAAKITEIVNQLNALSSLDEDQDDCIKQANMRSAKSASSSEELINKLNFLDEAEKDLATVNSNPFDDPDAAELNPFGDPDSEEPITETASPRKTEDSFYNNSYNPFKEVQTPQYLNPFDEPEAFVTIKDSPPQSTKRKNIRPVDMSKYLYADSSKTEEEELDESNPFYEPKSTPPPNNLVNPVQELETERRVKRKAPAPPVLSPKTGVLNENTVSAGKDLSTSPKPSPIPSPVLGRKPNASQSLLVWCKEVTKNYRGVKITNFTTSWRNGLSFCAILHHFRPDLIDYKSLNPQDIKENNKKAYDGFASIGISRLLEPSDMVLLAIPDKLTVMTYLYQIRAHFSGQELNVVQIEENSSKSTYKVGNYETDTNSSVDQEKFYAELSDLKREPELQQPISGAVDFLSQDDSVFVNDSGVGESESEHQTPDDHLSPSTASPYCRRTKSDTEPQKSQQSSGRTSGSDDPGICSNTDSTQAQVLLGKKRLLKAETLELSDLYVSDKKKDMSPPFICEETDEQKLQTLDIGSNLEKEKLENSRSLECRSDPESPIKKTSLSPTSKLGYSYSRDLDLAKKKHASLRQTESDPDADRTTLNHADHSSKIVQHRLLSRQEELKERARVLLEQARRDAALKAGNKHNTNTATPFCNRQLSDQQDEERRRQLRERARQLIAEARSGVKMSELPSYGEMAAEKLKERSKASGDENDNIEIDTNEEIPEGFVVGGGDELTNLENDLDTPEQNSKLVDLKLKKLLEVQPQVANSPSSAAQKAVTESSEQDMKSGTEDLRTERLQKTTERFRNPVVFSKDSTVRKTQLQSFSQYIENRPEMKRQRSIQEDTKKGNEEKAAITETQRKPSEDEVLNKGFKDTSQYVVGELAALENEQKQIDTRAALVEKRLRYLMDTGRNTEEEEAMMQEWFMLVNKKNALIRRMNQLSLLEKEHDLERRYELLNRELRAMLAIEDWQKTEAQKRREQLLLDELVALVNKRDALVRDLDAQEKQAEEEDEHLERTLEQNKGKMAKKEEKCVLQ
UniProt P24534: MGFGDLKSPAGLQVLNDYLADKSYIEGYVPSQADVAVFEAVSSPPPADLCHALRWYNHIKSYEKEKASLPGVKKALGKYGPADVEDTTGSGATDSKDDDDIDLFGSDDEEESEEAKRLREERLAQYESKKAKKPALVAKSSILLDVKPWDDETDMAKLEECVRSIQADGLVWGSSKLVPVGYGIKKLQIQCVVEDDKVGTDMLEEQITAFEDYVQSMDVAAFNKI
UniProt Q9BZQ6: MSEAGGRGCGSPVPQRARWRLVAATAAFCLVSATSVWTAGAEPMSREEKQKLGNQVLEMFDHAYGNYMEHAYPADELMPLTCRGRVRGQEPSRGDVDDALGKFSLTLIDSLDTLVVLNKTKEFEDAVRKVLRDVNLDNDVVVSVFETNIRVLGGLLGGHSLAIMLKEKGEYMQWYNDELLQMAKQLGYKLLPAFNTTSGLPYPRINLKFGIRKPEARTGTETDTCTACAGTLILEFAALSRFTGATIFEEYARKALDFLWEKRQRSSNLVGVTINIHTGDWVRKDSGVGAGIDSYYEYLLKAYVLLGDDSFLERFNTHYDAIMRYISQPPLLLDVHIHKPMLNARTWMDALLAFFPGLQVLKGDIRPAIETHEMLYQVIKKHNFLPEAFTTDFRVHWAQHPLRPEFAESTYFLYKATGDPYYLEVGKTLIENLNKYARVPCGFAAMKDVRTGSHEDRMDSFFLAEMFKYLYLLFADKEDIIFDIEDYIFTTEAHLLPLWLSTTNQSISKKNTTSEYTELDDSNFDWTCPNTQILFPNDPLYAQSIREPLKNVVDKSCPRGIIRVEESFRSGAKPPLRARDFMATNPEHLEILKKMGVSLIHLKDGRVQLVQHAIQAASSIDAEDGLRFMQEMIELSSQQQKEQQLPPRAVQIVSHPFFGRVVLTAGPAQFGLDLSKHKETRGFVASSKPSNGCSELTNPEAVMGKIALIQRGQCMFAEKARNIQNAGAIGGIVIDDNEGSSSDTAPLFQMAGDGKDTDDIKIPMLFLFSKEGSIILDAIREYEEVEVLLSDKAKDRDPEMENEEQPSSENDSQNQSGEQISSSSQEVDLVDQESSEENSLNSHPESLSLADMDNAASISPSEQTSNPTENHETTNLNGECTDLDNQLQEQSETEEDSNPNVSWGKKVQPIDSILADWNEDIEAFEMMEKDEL
UniProt Q6V1X1: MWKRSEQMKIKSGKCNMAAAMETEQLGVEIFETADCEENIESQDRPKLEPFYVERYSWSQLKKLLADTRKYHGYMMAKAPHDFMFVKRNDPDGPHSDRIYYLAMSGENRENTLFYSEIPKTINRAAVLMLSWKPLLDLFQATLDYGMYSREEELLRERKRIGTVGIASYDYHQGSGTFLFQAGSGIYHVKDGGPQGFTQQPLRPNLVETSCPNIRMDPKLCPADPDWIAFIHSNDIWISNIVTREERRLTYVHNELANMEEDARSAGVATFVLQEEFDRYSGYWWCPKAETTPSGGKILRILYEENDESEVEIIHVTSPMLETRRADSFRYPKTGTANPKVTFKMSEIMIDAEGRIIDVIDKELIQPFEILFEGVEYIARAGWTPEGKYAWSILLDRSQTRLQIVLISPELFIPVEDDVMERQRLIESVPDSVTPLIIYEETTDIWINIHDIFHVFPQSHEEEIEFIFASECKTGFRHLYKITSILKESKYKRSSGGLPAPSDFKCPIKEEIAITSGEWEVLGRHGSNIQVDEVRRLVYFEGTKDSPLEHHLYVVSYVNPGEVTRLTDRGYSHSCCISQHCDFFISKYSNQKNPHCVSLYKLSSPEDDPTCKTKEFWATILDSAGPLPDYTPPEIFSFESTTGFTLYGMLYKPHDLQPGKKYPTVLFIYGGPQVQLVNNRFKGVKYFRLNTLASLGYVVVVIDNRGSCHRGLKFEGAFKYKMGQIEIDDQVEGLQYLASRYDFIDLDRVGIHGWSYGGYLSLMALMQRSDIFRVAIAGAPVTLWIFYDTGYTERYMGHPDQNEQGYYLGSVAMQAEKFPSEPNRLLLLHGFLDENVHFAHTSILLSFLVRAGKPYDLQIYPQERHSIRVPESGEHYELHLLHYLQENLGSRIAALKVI
UniProt Q99848: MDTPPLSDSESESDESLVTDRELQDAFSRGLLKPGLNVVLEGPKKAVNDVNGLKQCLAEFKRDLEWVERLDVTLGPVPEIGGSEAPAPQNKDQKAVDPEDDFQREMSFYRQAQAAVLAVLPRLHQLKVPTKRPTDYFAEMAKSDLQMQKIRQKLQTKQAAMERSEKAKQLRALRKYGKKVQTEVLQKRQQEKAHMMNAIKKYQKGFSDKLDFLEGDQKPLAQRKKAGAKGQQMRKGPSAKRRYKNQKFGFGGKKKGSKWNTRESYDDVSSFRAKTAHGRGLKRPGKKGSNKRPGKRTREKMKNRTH
UniProt Q8N5C7: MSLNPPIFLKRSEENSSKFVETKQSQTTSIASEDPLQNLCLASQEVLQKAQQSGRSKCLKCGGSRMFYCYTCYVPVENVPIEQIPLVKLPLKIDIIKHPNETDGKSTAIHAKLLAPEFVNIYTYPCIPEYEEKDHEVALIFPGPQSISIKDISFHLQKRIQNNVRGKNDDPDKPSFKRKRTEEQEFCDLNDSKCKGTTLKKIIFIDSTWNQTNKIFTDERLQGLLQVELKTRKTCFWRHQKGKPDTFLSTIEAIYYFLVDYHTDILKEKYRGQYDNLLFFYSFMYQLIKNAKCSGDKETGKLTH
UniProt Q9BZG8: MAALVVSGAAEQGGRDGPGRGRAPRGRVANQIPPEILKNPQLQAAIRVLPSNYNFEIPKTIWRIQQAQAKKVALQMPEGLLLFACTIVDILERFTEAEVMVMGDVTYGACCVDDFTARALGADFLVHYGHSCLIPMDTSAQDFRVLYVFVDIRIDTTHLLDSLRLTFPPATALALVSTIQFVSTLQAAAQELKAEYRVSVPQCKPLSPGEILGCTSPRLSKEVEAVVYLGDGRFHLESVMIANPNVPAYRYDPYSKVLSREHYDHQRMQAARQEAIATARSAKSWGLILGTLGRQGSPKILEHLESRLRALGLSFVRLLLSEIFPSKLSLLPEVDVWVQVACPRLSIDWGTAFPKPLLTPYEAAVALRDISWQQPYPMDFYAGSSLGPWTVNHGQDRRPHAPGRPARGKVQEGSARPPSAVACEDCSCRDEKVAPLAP
UniProt O95905: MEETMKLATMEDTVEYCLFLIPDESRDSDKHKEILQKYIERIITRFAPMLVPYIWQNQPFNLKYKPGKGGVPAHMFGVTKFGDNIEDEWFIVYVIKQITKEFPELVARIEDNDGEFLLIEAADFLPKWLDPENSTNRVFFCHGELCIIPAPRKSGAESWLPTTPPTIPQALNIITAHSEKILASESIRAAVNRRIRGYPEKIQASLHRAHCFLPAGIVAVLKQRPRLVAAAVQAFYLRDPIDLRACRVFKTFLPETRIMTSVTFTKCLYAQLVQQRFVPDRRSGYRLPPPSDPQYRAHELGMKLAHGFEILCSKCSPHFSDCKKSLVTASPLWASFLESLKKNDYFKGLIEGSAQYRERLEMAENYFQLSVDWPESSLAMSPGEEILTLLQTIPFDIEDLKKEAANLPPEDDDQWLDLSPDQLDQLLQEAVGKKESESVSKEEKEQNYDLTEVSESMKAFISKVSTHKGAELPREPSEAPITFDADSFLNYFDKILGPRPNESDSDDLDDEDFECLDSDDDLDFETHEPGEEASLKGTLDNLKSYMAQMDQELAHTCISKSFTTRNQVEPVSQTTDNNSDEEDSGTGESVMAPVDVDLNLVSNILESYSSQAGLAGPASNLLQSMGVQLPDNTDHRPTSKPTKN

What was measured:
Assay in all cases: log2 fold change, soluble protein after heating vs DMSO (PISA); higher = thermal stabilisation; K562 lysate, 10 uM; active = over 0.2 and 3.5 SD of the protein, either way, in both replicates (recomputed)
lapatinib = compound: CS(=O)(=O)CCNCc1ccc(-c2ccc3ncnc(Nc4ccc(OCc5cccc(F)c5)c(Cl)c4)c3c2)o1 [lapatinib]
Procedure, shortened: (§1)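 Soluble protein was defined as the supernatant remaining after 21,000xg for 90 min, following pooling of heated aliquots and adjustment to 0.5% NP-40 at 4°C. Before that, crude K562 extract at 1 mg/mL protein in PBS pH 7.4 with 1 mM MgCl2 was treated with 10 μM compound for 30 min and heated for 3 min across 48°C-58°C. Quantification used TMTpro 16plex LC-MS/MS with channel sums equalised, and values are log-two fold changes in thermal stability relative to solvent controls from duplicates.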

pictilisib = compound: CS(=O)(=O)N1CCN(Cc2cc3nc(-c4cccc5[nH]ncc45)nc(N4CCOCC4)c3s2)CC1 [pictilisib]
Procedure, shortened: as §1

crizotinib = compound: C[C@@H](Oc1cc(-c2cnn(C3CCNCC3)c2)cnc1N)c1c(Cl)ccc(F)c1Cl [crizotinib]
Procedure, shortened: as §1

[1] = compound: C[C@H](C1=CC=C(C=C1)C(=O)NC2=C3C=CNC3=NC=C2)N
Procedure, shortened: as §1

duvelisib = compound: C[C@H](Nc1ncnc2nc[nH]c12)c1cc2cccc(Cl)c2c(=O)n1-c1ccccc1 [duvelisib]
Procedure, shortened: as §1

gandotinib = compound: Cc1cc(Nc2cc(CN3CCOCC3)c3nc(C)c(Cc4ccc(Cl)cc4F)n3n2)n[nH]1 [gandotinib]
Procedure, shortened: as §1

tozasertib = compound: Cc1cc(Nc2cc(N3CCN(C)CC3)nc(Sc3ccc(NC(=O)C4CC4)cc3)n2)n[nH]1 [tozasertib]
Procedure, shortened: as §1

doramapimod = compound: Cc1ccc(-n2nc(C(C)(C)C)cc2NC(=O)Nc2ccc(OCCN3CCOCC3)c3ccccc23)cc1 [doramapimod]
Procedure, shortened: as §1

bafetinib = compound: Cc1ccc(NC(=O)c2ccc(CN3CC[C@H](N(C)C)C3)c(C(F)(F)F)c2)cc1Nc1nccc(-c2cncnc2)n1 [bafetinib]
Procedure, shortened: as §1

[2] = compound: Cc1cccc(CC(=O)N2CCc3c2ccc(-c2cn(C)c4ncnc(N)c24)c3F)n1
Procedure, shortened: as §1

nilotinib = compound: Cc1cn(-c2cc(NC(=O)c3ccc(C)c(Nc4nccc(-c5cccnc5)n4)c3)cc(C(F)(F)F)c2)cn1 [nilotinib]
Procedure, shortened: as §1

[3] = compound: Cc1nc(Nc2n[nH]c3c2CN(C(=O)N[C@H](CN(C)C)c2ccccc2)C3(C)C)c2sccc2n1
Procedure, shortened: as §1

dasatinib = compound: Cc1nc(Nc2ncc(C(=O)Nc3c(C)cccc3Cl)s2)cc(N2CCN(CCO)CC2)n1 [dasatinib]
Procedure, shortened: as §1

[4] = compound: Cc1ncc(-c2ccnc(Nc3ccc(S(C)(=O)=O)cc3)n2)n1C(C)C
Procedure, shortened: as §1

[5] = compound: Cn1cc(-c2ccc3c(c2)CCN3C(=O)Cc2cccc(C(F)(F)F)c2)c2c(N)ncnc21
Procedure, shortened: as §1

quisinostat = compound: Cn1cc(CNCC2CCN(c3ncc(C(=O)NO)cn3)CC2)c2ccccc21 [quisinostat]
Procedure, shortened: as §1

tipifarnib = compound: Cn1cncc1[C@@](N)(c1ccc(Cl)cc1)c1ccc2c(c1)c(-c1cccc(Cl)c1)cc(=O)n2C [tipifarnib]
Procedure, shortened: as §1

[6] = compound: NC(=O)Nc1cc(-c2cccc(F)c2)sc1C(=O)N[C@H]1CCCNC1
Procedure, shortened: as §1

[7] = compound: NC(=O)c1cnc(N[C@@H]2CCCC[C@@H]2N)nc1Nc1cccc(-n2nccn2)c1
Procedure, shortened: as §1

[8] = compound: NC1(c2ccc(-c3nc4ccn5c(=O)[nH]nc5c4cc3-c3ccccc3)cc2)CCC1
Procedure, shortened: as §1

Measured: log2 fold change

ECPAS (UniProt Q5VYK3)
inactive: lapatinib -0.034 | pictilisib -0.019 | crizotinib -0.014 | [1] -0.012 | duvelisib -0.002 | gandotinib -0.135 | tozasertib 0.008 | doramapimod 0.005 | bafetinib -0.044 | [2] 0.03 | nilotinib -0.011 | [3] 0.009 | dasatinib -0.052 | [4] -0.001 | [5] 0.023 | quisinostat 0.007 | tipifarnib -0.008 | [6] 0.03 | [7] 0.008 | [8] 0.022

ECH1 (UniProt Q13011)
inactive: lapatinib -0.035 | pictilisib -0.008 | crizotinib -0.03 | [1] -0.089 | duvelisib 0.016 | gandotinib 0.005 | tozasertib 0.178 | doramapimod -0.008 | bafetinib 0.091 | [2] 0.028 | nilotinib -0.008 | [3] -0.019 | dasatinib 0.195 | [4] -0.003 | [5] 0.02 | quisinostat -0.008 | tipifarnib 0.022 | [6] 0.001 | [7] -0.022 | [8] 0.193

ECI2 (UniProt O75521)
inactive: lapatinib -0.022 | pictilisib -0.017 | crizotinib 0.032 | [1] -0.002 | duvelisib 0.004 | gandotinib -0.009 | tozasertib 0.03 | doramapimod 0.007 | bafetinib -0.002 | [2] 0.042 | nilotinib 0.085 | [3] -0.013 | dasatinib 0.029 | [4] 0.017 | [5] -0.01 | quisinostat 0.023 | tipifarnib -0.071 | [6] -0.027 | [7] -0.019 | [8] -0.022

EFCAB14 (UniProt O75071)
inactive: lapatinib -0.051 | pictilisib -0.058 | crizotinib 0.006 | [1] 0.037 | duvelisib 0.022 | gandotinib 0.064 | tozasertib 0.086 | doramapimod 0.011 | bafetinib -0.002 | [2] -0.084 | nilotinib -0.16 | [3] 0.016 | dasatinib 0.049 | [4] 0.001 | [5] -0.005 | quisinostat -0.001 | tipifarnib 0.013 | [6] 0.053 | [7] -0.005 | [8] 0.013

EHBP1 isoform 2 (UniProt Q8NDI1)
inactive: lapatinib 0.007 | pictilisib -0.012 | crizotinib -0.041 | [1] 0.024 | duvelisib -0.022 | gandotinib -0.07 | tozasertib 0.027 | doramapimod 0.031 | bafetinib -0.105 | [2] 0.026 | nilotinib -0.005 | [3] -0.076 | dasatinib 0.057 | [4] 0.004 | [5] -0.01 | quisinostat -0.085 | tipifarnib 0.03 | [6] 0.023 | [7] 0.036 | [8] 0.011

DYNC1I2 isoform 5 (UniProt Q13409)
inactive: lapatinib -0.003 | pictilisib -0.017 | crizotinib -0.003 | [1] -0.004 | duvelisib -0.002 | gandotinib 0.009 | tozasertib 0.012 | doramapimod 0.006 | bafetinib 0.03 | [2] -0.003 | nilotinib 0.029 | [3] 0.016 | dasatinib 0.008 | [4] -0.003 | [5] 0.001 | quisinostat 0.023 | tipifarnib -0.011 | [6] -0.014 | [7] -0.008 | [8] -0.01

EEF1B2 (UniProt P24534)
inactive: lapatinib -0.03 | pictilisib 0.034 | crizotinib 0.012 | [1] -0.001 | duvelisib 0.034 | gandotinib -0.003 | tozasertib -0.026 | doramapimod -0.002 | bafetinib 0.055 | [2] 0.011 | nilotinib -0.002 | [3] -0.002 | dasatinib 0 | [4] -0.01 | [5] -0.021 | quisinostat -0.009 | tipifarnib 0.006 | [6] 0.011 | [7] -0.02 | [8] -0.003

EDEM3 (UniProt Q9BZQ6)
inactive: lapatinib 0.001 | pictilisib -0.026 | crizotinib -0.03 | [1] -0.028 | duvelisib -0.025 | gandotinib -0.013 | tozasertib 0.01 | doramapimod 0.022 | bafetinib -0.038 | [2] -0.019 | nilotinib -0.002 | [3] -0.018 | dasatinib -0.024 | [4] 0.036 | [5] 0.023 | quisinostat -0.016 | tipifarnib -0.005 | [6] 0.044 | [7] 0.007 | [8] 0.014

EIF2A (UniProt Q9BY44)
inactive: lapatinib -0.008 | pictilisib 0.002 | crizotinib -0.01 | [1] -0.059 | duvelisib -0.008 | gandotinib 0.009 | tozasertib -0.025 | doramapimod 0.016 | bafetinib -0.004 | [2] 0.002 | nilotinib 0.005 | [3] -0.009 | dasatinib -0.009 | [4] 0.003 | [5] -0.006 | quisinostat -0.002 | tipifarnib 0.049 | [6] -0.023 | [7] -0.019 | [8] 0.001

DPP8 (UniProt Q6V1X1)
inactive: lapatinib -0.113 | pictilisib -0.094 | crizotinib 0.042 | [1] -0.159 | duvelisib 0.012 | gandotinib -0.018 | tozasertib 0.076 | doramapimod 0.085 | bafetinib -0.081 | [2] 0.027 | nilotinib 0.012 | [3] 0.053 | dasatinib -0.017 | [4] 0.01 | [5] 0.005 | quisinostat 0.033 | tipifarnib 0.01 | [6] 0.002 | [7] -0.172 | [8] -0.013

EBNA1BP2 (UniProt Q99848)
inactive: lapatinib -0.012 | pictilisib 0.011 | crizotinib 0.028 | [1] 0.02 | duvelisib 0.009 | gandotinib -0.004 | tozasertib -0.002 | doramapimod -0.04 | bafetinib -0.03 | [2] 0.023 | nilotinib 0.016 | [3] -0.026 | dasatinib 0.015 | [4] -0.004 | [5] -0.017 | quisinostat 0.094 | tipifarnib 0.024 | [6] -0.006 | [7] -0.011 | [8] -0.018

DTWD1 (UniProt Q8N5C7)
inactive: lapatinib -0.049 | pictilisib -0.049 | crizotinib 0 | [1] 0.015 | duvelisib 0.06 | gandotinib -0.07 | tozasertib -0.075 | doramapimod 0.035 | bafetinib 0.002 | [2] 0.092 | nilotinib 0.007 | [3] -0.039 | dasatinib -0.034 | [4] 0.01 | [5] -0.02 | quisinostat -0.067 | tipifarnib -0.007 | [6] 0.002 | [7] -0.008 | [8] 0.049

EEF1A2 (UniProt Q05639)
inactive: lapatinib 0.001 | pictilisib 0.008 | crizotinib -0.025 | [1] -0.009 | duvelisib 0.009 | gandotinib -0.016 | tozasertib -0.017 | doramapimod 0.005 | bafetinib -0.037 | [2] 0.006 | nilotinib 0 | [3] -0.026 | dasatinib -0.033 | [4] 0 | [5] -0.018 | quisinostat -0.028 | tipifarnib 0.057 | [6] 0.023 | [7] 0.001 | [8] -0.004

2 neighbouring records from above, quoted:
DPP8 (UniProt Q6V1X1)
inactive: lapatinib -0.113 | pictilisib -0.094 | crizotinib 0.042 | [1] -0.159 | duvelisib 0.012 | gandotinib -0.018 | tozasertib 0.076 | doramapimod 0.085 | bafetinib -0.081 | [2] 0.027 | nilotinib 0.012 | [3] 0.053 | dasatinib -0.017 | [4] 0.01 | [5] 0.005 | quisinostat 0.033 | tipifarnib 0.01 | [6] 0.002 | [7] -0.172 | [8] -0.013

EBNA1BP2 (UniProt Q99848)
inactive: lapatinib -0.012 | pictilisib 0.011 | crizotinib 0.028 | [1] 0.02 | duvelisib 0.009 | gandotinib -0.004 | tozasertib -0.002 | doramapimod -0.04 | bafetinib -0.03 | [2] 0.023 | nilotinib 0.016 | [3] -0.026 | dasatinib 0.015 | [4] -0.004 | [5] -0.017 | quisinostat 0.094 | tipifarnib 0.024 | [6] -0.006 | [7] -0.011 | [8] -0.018

More results:

DPH1 (UniProt Q9BZG8)
inactive: lapatinib -0.008 | pictilisib -0.032 | crizotinib 0.013 | [1] -0.003 | duvelisib 0.014 | gandotinib -0.008 | tozasertib 0.01 | doramapimod -0.01 | bafetinib 0.012 | [2] -0.008 | nilotinib 0.031 | [3] -0.05 | dasatinib 0.005 | [4] -0.054 | [5] -0.011 | quisinostat 0.005 | tipifarnib -0.036 | [6] -0.001 | [7] 0.006 | [8] -0.034

ECD isoform 3 (UniProt O95905)
inactive: lapatinib 0.009 | pictilisib -0.018 | crizotinib -0.123 | [1] -0.018 | duvelisib -0.035 | gandotinib -0.034 | tozasertib -0.065 | doramapimod 0.017 | bafetinib -0.061 | [2] 0.023 | nilotinib 0.005 | [3] -0.002 | dasatinib -0.081 | [4] -0.016 | [5] 0.066 | quisinostat -0.053 | tipifarnib -0.006 | [6] 0.04 | [7] -0.039 | [8] -0.032

DVL2 (UniProt O14641)
inactive: lapatinib 0.096 | pictilisib -0.037 | crizotinib -0.056 | [1] 0.026 | duvelisib 0 | gandotinib -0.107 | tozasertib -0.039 | doramapimod 0.106 | bafetinib -0.232 | [2] 0.054 | nilotinib -0.03 | [3] -0.003 | dasatinib -0.114 | [4] 0.027 | [5] -0.063 | quisinostat -0.13 | tipifarnib -0.027 | [6] 0.102 | [7] 0.236 | [8] -0.097
